From PubChem BioAssay AID248 (DTP/NCI, 2004)
The list does not hold the whole screen: it is rich in T/C values a quarter to a half above the control, in often repeated tests (any T/C) and in doses without a T/C. Further doses and runs are listed elsewhere. T/C: endpoint of the treated group in % of that of the vehicle group. Some doses have a count of surviving animals in place of a T/C: the source files T/C as zero there, which appears to mark a toxic dose or a test without result, not a measured value. Some doses without a T/C left all or most animals alive at the check, yet need not have been tolerated: the source hardly ever lists a survival T/C far under the control, and the zero likely stands for such cases as well. Counts of survivors are from the toxicity check (mostly the fifth day) where no day follows; animals may have died later. Schedule codes are those of the source, read here as Q, the interval in days (D) or hours (H), X, the number of doses. Some entries hold several experiments; the values are given in rising order. For survival time, the PubChem record calls one and a half times the control and up active, and a quarter to a half above the control has no call in these data; cut-offs in other NCI protocols can differ. Some T/C values are followed by the survivors on the day toxicity was checked, most often the fifth; where none is given, no animal had died by that day.

System: L1210 leukemia ip in BDF1 mice, survival T/C
Test: NCI In Vivo Anticancer Drug Screen. Data for tumor model L1210 Leukemia (intraperitoneal) in B6D2F1 (BDF1) mice
Conditions: higher T/C = longer survival

Structure (SMILES): C[n+]1ccc(Nc2ccc(NC(=O)c3ccc(Nc4cc[n+](C)c5ccc(N)cc45)cc3)cc2)cc1
- T/C (T/C endpoint: mean survival time, dose: 0.5 mg/kg/injection, schedule: Q01DX009 (ip), vehicle: water): 138 % of control
- survivor count (T/C endpoint: mean survival time, dose: 0.5 mg/kg/injection, schedule: Q01DX009 (sc), vehicle: water): 3 of 6
- T/C (T/C endpoint: mean survival time, dose: 1.0 mg/kg/injection, schedule: Q01DX009 (ip), vehicle: water): 128, 135, 141 % of control
- T/C (T/C endpoint: mean survival time, dose: 2.0 mg/kg/injection, schedule: Q01DX009 (sc), vehicle: Klucel (hydroxypropylcellulose) (HPC)): 131 % of control
- T/C (T/C endpoint: mean survival time, dose: 2.0 mg/kg/injection, schedule: Q01DX009 (sc), vehicle: water): 148 % of control
- survivor count (T/C endpoint: mean survival time, dose: 16.0 mg/kg/injection, schedule: Q01DX009 (ip), vehicle: Klucel (hydroxypropylcellulose) (HPC)): 2 of 6
- survivor count (T/C endpoint: mean survival time, dose: 16.0 mg/kg/injection, schedule: Q01DX009 (ip), vehicle: water): 0 of 10 and 2 of 6
- survivor count (T/C endpoint: mean survival time, dose: 32.0 mg/kg/injection, schedule: Q01DX009 (ip), vehicle: water): 0 of 10
- survivor count (T/C endpoint: mean survival time, dose: 200.0 mg/kg/injection, schedule: Q04DX003 (ip), vehicle: saline with Tween-80): 2 of 6
- survivor count (T/C endpoint: mean survival time, dose: 400.0 mg/kg/injection, schedule: Q04DX003 (ip), vehicle: saline with Tween-80): 3 of 6
- T/C (T/C endpoint: median survival time, dose: 0.5 mg/kg/injection, schedule: Q03HX008 (ip), vehicle: water): 130 % of control
- T/C (T/C endpoint: median survival time, dose: 0.5 mg/kg/injection, schedule: Q03HX016 (ip), vehicle: water): 138 % of control
- T/C (T/C endpoint: median survival time, dose: 0.5 mg/kg/injection, schedule: Q03HX024 (ip), vehicle: water): 128 % of control
- T/C (T/C endpoint: median survival time, dose: 1.0 mg/kg/injection, schedule: Q01DX005 (ip), vehicle: water): 139 % of control
- T/C (T/C endpoint: median survival time, dose: 1.0 mg/kg/injection, schedule: Q01DX009 (ip), vehicle: water): 127 and 135 % of control
- T/C (T/C endpoint: median survival time, dose: 1.0 mg/kg/injection, schedule: Q03HX008 (ip), vehicle: water): 125 and 143 % of control
- T/C (T/C endpoint: median survival time, dose: 1.0 mg/kg/injection, schedule: Q03HX016 (ip), vehicle: water): 138 % of control
- T/C (T/C endpoint: median survival time, dose: 2.0 mg/kg/injection, schedule: Q01DX005 (ip), vehicle: water): 141 % of control
- T/C (T/C endpoint: median survival time, dose: 2.0 mg/kg/injection, schedule: Q01DX009 (sc), vehicle: water): 136 % of control
- T/C (T/C endpoint: median survival time, dose: 2.0 mg/kg/injection, schedule: Q03HX008 (ip), vehicle: water): 144 % of control
- T/C (T/C endpoint: median survival time, dose: 4.0 mg/kg/injection, schedule: Q01DX001 (ip), vehicle: water): 125 % of control
- survivor count (T/C endpoint: median survival time, dose: 4.0 mg/kg/injection, schedule: Q01DX009 (ip), vehicle: water): 7 of 10
- T/C (T/C endpoint: median survival time, dose: 4.0 mg/kg/injection, schedule: Q03HX008 (ip), vehicle: water): 148 % of control [9 of 10 alive]
- T/C (T/C endpoint: median survival time, dose: 4.0 mg/kg/injection, schedule: Q04DX003 (ip), vehicle: water): 141 % of control
- T/C (T/C endpoint: median survival time, dose: 8.0 mg/kg/injection, schedule: Q01DX001 (ip), vehicle: water): 134 % of control
- survivor count (T/C endpoint: median survival time, dose: 8.0 mg/kg/injection, schedule: Q01DX005 (ip), vehicle: water): 6 of 10
- survivor count (T/C endpoint: median survival time, dose: 8.0 mg/kg/injection, schedule: Q01DX009 (ip), vehicle: water): 0 of 10 and 4 of 10
- survivor count (T/C endpoint: median survival time, dose: 8.0 mg/kg/injection, schedule: Q03HX008 (ip), vehicle: water): 0 of 10 and 1 of 10
- survivor count (T/C endpoint: median survival time, dose: 8.0 mg/kg/injection, schedule: Q03HX016 (ip), vehicle: water): 4 of 10 and 5 of 10
- survivor count (T/C endpoint: median survival time, dose: 8.0 mg/kg/injection, schedule: Q03HX024 (ip), vehicle: water): 1 of 10 and 5 of 10
- T/C (T/C endpoint: median survival time, dose: 8.0 mg/kg/injection, schedule: Q04DX003 (ip), vehicle: water): 147 % of control
- T/C (T/C endpoint: median survival time, dose: 8.0 mg/kg/injection, schedule: Q08DX002 (ip), vehicle: water): 131 % of control [9 of 10 alive]
- survivor count (T/C endpoint: median survival time, dose: 16.0 mg/kg/injection, schedule: Q01DX001 (ip), vehicle: water): 0 of 10
- T/C (T/C endpoint: median survival time, dose: 16.0 mg/kg/injection, schedule: Q01DX001 (sc), vehicle: water): 138 % of control
- survivor count (T/C endpoint: median survival time, dose: 16.0 mg/kg/injection, schedule: Q01DX005 (ip), vehicle: water): 0 of 10 and 1 of 10
- survivor count (T/C endpoint: median survival time, dose: 16.0 mg/kg/injection, schedule: Q01DX009 (ip), vehicle: water): 0 of 10
- survivor count (T/C endpoint: median survival time, dose: 16.0 mg/kg/injection, schedule: Q01DX009 (sc), vehicle: water): 10 of 10
- survivor count (T/C endpoint: median survival time, dose: 16.0 mg/kg/injection, schedule: Q04DX003 (ip), vehicle: water): 1 of 10 and 5 of 10
- survivor count (T/C endpoint: median survival time, dose: 16.0 mg/kg/injection, schedule: Q08DX002 (ip), vehicle: water): 2 of 10 and 3 of 10
- survivor count (T/C endpoint: median survival time, dose: 32.0 mg/kg/injection, schedule: Q01DX001 (ip), vehicle: water): 0 of 10 and 1 of 10
- T/C (T/C endpoint: median survival time, dose: 32.0 mg/kg/injection, schedule: Q01DX001 (sc), vehicle: water): 132 % of control
- survivor count (T/C endpoint: median survival time, dose: 32.0 mg/kg/injection, schedule: Q04DX003 (ip), vehicle: water): 1 of 10
- survivor count (T/C endpoint: median survival time, dose: 32.0 mg/kg/injection, schedule: Q08DX002 (ip), vehicle: water): 0 of 10
- survivor count (T/C endpoint: median survival time, dose: 64.0 mg/kg/injection, schedule: Q01DX001 (ip), vehicle: water): 0 of 10
- survivor count (T/C endpoint: median survival time, dose: 64.0 mg/kg/injection, schedule: Q04DX003 (ip), vehicle: water): 0 of 10
- survivor count (T/C endpoint: median survival time, dose: 64.0 mg/kg/injection, schedule: Q08DX002 (ip), vehicle: water): 0 of 10 and 2 of 10
